Measurements: article PMC10570300
Changes are numbered by the printed parent chain. No constants are given. Whether binding was seen depends on the method and setting. In cells and extracts the contact can be indirect. Some binding calls cover weakened binding; strength is not graded here. For some of these results: Where a sequence is shown, tags or fusion partners need not be part of it. Blank lines part the entries; values can stand above or below the molecule they belong to.

Protein sequences, listed by entry. Tags and fused reporters are not part of them. Residues count along the entry.
UniProt P06804, residues 80-235: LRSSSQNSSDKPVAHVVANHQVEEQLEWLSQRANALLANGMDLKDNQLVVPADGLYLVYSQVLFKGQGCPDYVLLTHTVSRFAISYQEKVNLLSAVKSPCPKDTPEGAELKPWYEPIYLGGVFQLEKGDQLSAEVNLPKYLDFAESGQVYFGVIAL
UniProt Q9QZQ1: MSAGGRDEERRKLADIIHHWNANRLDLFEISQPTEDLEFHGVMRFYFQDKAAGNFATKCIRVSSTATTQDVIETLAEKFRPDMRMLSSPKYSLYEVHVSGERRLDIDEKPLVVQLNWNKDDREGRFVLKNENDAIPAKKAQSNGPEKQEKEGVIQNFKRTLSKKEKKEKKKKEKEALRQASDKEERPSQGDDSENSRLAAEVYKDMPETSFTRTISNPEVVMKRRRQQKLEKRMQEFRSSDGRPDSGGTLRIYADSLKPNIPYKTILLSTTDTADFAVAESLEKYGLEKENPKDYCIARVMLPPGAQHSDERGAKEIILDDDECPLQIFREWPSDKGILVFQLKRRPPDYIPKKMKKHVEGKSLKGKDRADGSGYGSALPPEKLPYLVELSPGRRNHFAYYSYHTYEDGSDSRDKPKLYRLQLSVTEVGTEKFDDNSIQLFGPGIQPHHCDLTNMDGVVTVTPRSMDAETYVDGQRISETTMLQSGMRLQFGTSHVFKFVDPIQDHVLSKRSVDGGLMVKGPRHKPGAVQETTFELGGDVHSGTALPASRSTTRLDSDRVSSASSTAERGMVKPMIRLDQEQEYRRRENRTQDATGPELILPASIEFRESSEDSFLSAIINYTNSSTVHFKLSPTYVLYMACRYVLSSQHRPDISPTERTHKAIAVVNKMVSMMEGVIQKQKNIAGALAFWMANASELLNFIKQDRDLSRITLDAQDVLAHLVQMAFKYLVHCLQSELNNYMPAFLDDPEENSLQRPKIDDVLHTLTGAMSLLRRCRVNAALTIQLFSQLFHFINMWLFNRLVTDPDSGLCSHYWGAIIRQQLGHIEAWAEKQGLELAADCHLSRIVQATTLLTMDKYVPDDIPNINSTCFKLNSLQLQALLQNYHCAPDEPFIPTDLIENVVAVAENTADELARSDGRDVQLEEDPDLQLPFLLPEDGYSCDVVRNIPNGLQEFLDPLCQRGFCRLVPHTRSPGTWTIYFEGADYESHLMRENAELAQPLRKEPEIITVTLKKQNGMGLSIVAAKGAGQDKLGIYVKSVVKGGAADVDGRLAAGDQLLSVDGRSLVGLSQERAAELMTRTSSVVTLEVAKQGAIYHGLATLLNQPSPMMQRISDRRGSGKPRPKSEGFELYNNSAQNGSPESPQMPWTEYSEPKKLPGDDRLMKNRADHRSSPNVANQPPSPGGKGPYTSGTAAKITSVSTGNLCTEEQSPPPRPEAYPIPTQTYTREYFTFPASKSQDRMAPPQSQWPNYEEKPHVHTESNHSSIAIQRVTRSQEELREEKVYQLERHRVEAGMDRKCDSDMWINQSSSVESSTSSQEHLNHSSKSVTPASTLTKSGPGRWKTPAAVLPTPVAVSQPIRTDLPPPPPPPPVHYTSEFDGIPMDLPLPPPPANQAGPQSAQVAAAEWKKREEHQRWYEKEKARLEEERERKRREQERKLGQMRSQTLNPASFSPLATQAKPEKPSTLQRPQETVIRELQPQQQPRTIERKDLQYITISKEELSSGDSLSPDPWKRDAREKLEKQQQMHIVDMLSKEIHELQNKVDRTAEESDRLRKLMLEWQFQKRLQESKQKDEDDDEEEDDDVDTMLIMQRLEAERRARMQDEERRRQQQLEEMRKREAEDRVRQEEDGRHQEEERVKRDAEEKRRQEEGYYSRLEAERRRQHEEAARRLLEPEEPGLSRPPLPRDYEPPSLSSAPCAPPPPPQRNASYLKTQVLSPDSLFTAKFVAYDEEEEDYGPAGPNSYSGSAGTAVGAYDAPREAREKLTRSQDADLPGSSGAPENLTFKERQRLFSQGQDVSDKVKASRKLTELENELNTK

How the values were obtained:
[1] = biological target: TNFα-FLAG (UniProt P06804); assay: co-IP; Complex I precipitation: MEFs stimulated with FLAG-TNFα (100 ng/mL), lysed in NP-40 buffer, anti-FLAG beads; immunoblot; only the target purified
[2] = biological target: T1, RIPK1 (receptor-interacting serine/threonine kinase 1), endogenous, mouse (mouse (endogenous in primary hepatocytes and MEFs)) (UniProt Q60855); assay: co-IP; endogenous proteins in lysate of Af6 flox/flox mouse primary hepatocytes (NP-40 buffer); control mouse IgG, anti-AF6 or anti-RIPK1 monoclonal antibody, A/G-agarose beads; immunoblot
T1 sequence: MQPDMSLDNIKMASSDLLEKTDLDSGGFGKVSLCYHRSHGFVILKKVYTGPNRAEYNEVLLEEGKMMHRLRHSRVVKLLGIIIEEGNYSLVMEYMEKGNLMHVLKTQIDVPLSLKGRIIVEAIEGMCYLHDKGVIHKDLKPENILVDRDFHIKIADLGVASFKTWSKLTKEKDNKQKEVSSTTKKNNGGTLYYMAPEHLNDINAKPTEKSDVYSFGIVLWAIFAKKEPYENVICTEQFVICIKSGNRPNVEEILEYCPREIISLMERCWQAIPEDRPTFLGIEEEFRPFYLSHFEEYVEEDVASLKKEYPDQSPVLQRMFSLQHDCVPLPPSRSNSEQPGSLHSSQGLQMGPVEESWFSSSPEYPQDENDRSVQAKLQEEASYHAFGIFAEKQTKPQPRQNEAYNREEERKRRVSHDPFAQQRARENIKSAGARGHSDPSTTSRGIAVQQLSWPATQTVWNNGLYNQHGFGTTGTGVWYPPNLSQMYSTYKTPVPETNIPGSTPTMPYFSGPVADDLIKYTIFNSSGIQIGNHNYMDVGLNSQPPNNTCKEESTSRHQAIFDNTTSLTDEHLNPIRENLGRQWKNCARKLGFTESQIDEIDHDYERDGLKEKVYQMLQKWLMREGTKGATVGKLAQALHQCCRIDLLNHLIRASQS

[3] = biological target: TNFα-FLAG (UniProt P06804); assay: co-IP; Complex I precipitation: primary hepatocytes of Af6 flox/flox mice stimulated with Flag-TNFα (100 ng/mL), lysed in NP-40 buffer, anti-FLAG beads; immunoblot; only the target purified
[4] = biological target: T1, RIPK1 (receptor-interacting serine/threonine kinase 1), endogenous, mouse (mouse (endogenous in primary hepatocytes and MEFs)); assay: co-IP; endogenous proteins in lysate of MEF cells (wild type or RIPK1 K376R/K376R; NP-40 buffer); control mouse IgG, anti-AF6 or anti-RIPK1 monoclonal antibody, A/G-agarose beads; immunoblot
[5] = biological target: T2, RIPK1 K376R (endogenous, knock-in MEFs) (mouse (endogenous in MEFs)) (UniProt Q60855); assay: as above
T2 sequence: T1 sequence with K376R

[6] = biological target: T3, FLAG-tagged full-length RIPK1 (UniProt Q60855); assay: co-IP; 293T cells transfected 24 h with HA-tagged AF6 and Flag-tagged RIPK1 constructs; NP-40 lysate; anti-FLAG beads 4 h at room temperature; immunoblot
T3 sequence: T1 sequence

[7] = biological target: AF6 (endogenous, mouse) (mouse (endogenous in primary hepatocytes and MEFs)) (UniProt Q9QZQ1); assay: co-IP; endogenous proteins in lysate of Af6 flox/flox mouse primary hepatocytes (NP-40 buffer); control mouse IgG, anti-AF6 or anti-RIPK1 monoclonal antibody, A/G-agarose beads; immunoblot
[8] = biological target: T1, RIPK1 (receptor-interacting serine/threonine kinase 1), endogenous, mouse (mouse (endogenous in primary hepatocytes and MEFs)); assay: as above; remark: listed apart in the source

binding [2]: binds
binding [4]: binds
binding [5]: binds
Molecule: AF6 (endogenous, mouse) (from UniProt Q9QZQ1 1-1820)
binding [1]: binds
binding [3]: binds

binding [6]: binds
Molecule: HA-tagged AF6 (from UniProt Q9QZQ1 1-1820)

binding [7]: no binding
B1: cylindromatosis (CYLD), endogenous, mouse (enzyme, UniProt Q80TQ2 1-952)
chain: MSSGLWSQEKVTSPYWEERIFYLLLQECSVTDKQTQKLLKVPKGSIGQYIQDRSVGHSRVPSTKGKKNQIGLKILEQPHAVLFVDEKDVVEINEKFTELLLAITNCEERLSLFRNRLRLSKGLQVDVGSPVKVQLRSGEEKFPGVVRFRGPLLAERTVSGIFFGVELLEEGRGQGFTDGVYQGKQLFQCDEDCGVFVALDKLELIEDDDNGLESDFAGPGDTMQVEPPPLEINSRVSLKVGESTESGTVIFCDVLPGKESLGYFVGVDMDNPIGNWDGRFDGVQLCSFASVESTILLHINDIIPDSVTQERRPPKLAFMSRGVGDKGSSSHNKPKVTGSTSDPGSRNRSELFYTLNGSSVDSQQSKSKNPWYIDEVAEDPAKSLTEMSSDFGHSSPPPQPPSMNSLSSENRFHSLPFSLTKMPNTNGSMAHSPLSLSVQSVMGELNSTPVQESPPLPISSGNAHGLEVGSLAEVKENPPFYGVIRWIGQPPGLSDVLAGLELEDECAGCTDGTFRGTRYFTCALKKALFVKLKSCRPDSRFASLQPVSNQIERCNSLAFGGYLSEVVEENTPPKMEKEGLEIMIGKKKGIQGHYNSCYLDSTLFCLFAFSSALDTVLLRPKEKNDIEYYSETQELLRTEIVNPLRIYGYVCATKIMKLRKILEKVEAASGFTSEEKDPEEFLNILFHDILRVEPLLKIRSAGQKVQDCNFYQIFMEKNEKVGVPTIQQLLEWSFINSNLKFAEAPSCLIIQMPRFGKDFKLFKKIFPSLELNITDLLEDTPRQCRICGGLAMYECRECYDDPDISAGKIKQFCKTCSTQVHLHPRRLNHSYHPVSLPKDLPDWDWRHGCIPCQKMELFAVLCIETSHYVAFVKYGKDDSAWLFFDSMADRDGGQNGFNIPQVTPCPEVGEYLKMSLEDLHSLDSRRIQGCARRLLCDAYMCMYQSPTMSLYK

binding [7]: no binding
B2: A20 (TNFα-induced protein 3), endogenous, mouse (enzyme, UniProt Q60769 1-775)
chain: MAEQLLPQALYLSNMRKAVKIRERTPEDIFKPTNGIIYHFKTMHRYTLEMFRTCQFCPQFREIIHKALIDRSVQASLESQKKLNWCREVRKLVALKTNGDGNCLMHAACQYMWGVQDTDLVLRKALCSTLKETDTRNFKFRWQLESLKSQEFVETGLCYDTRNWNDEWDNLVKMASADTPAARSGLQYNSLEEIHIFVLSNILRRPIIVISDKMLRSLESGSNFAPLKVGGIYLPLHWPAQECYRYPIVLGYDSQHFVPLVTLKDSGPELRAVPLVNRDRGRFEDLKVHFLTDPENEMKEKLLKEYLIVMEIPVQGWDHGTTHLINAAKLDEANLPKEINLVDDYFELVQHEYKKWQENSDQARRAAHAQNPLEPSTPQLSLMDIKCETPNCPFFMSVNTQPLCHECSERRQKNQSKLPKLNSKLGPEGLPGVGLGSSNWSPEETAGGPHSAPPTAPSLFLFSETTAMKCRSPGCPFTLNVQHNGFCERCHARQINASHTADPGKCQACLQDVTRTFNGICSTCFKRTTAEPSSSLTSSIPASCHQRSKSDPSQLIQSLTPHSCHRTGNVSPSGCLSQAARTPGDRAGTSKCRKAGCMYFGTPENKGFCTLCFIEYRENKQSVTASEKAGSPAPRFQNNVPCLGRECGTLGSTMFEGYCQKCFIEAQNQRFHEARRTEEQLRSSQHRDMPRTTQVASRLKCARASCKNILACRSEELCMECQHLSQRVGSVAHRGEPTPEEPPKQRCRAPACDHFGNAKCNGYCNECYQFKQMYG

binding [7]: binds
binding [8]: binds
B3: ubiquitin-specific peptidase 21 (USP21), endogenous, mouse (enzyme, UniProt Q9QZL6 1-566)
chain: MPQASEHRLGRTREPPVNVQPRVGAKIPFPPRARSKERRNPVPGPNSMLRPLPPRPGPPDERLKKLELGRGRTSGSRPRGPLRADHGVPLPGSPPPAVALPLPSRTNLARSKSVSSGDLRPMGIALGGHRGAGELGAALSRLALRPEPPTLRRSTSLRRLGGFPGPPTLLSIRTEPPTSHGSFHMISARPSEPFYSDDKMAHHTLLLGSGHVGLRNLGNTCFLNAVLQCLSSTRPLRDFCLRRDFRQEVPGGGRAQELTEAFADVIGALWHPDSCEAVNPTRFRAVFQKYVPSFSGYSQQDAQEFLKLLMERLHLEINRRGRRAPPILASGPVPSPPRRGGGALHEEPELSDDDRANLMWKRYLEREDSKIVDLFVGQLKSCLKCQACGYRSTTFEVFCDLSLPIPKKGFAGGKVSLRDCFSLFTKEEELESENAPVCDRCRQKTRSTKKLTVQRFPRILVLHLNRFSTSRGSIKKSSVGVDFPLQRLSLGDFASDKAGSPVYQLYALCNHSGSVHYGHYTALCRCQTGWHVYNDSRVSPVSENQVASSEGYVLFYQLMQEPLRCL
